PubChem BioAssay AID652272 | Drosophila RNAi Screening Center, 2013
Aim: 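Finding fly genes that regulate Hedgehog signal transduction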 (primary screen). Cell system: Drosophila clone 8 (Cl8) cells. Reagent: long dsRNA against Drosophila genes. Measured: 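Firefly light from a Hedgehog-responsive ptc promoter reporter and Renilla reference light, both read on a plate reader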. Reading the numbers: firefly Hh reporter signal: higher = more ptc reporter light; Renilla reference signal: higher = more Renilla control light. Rule for the call: 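Hit when the z-score averaged over two replicates is under -2 or over +3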. Calls: active = hit: reporter lowered or raised; inactive = not a hit.
The deposit covers about 21,000 reagents; this is a random part of those that have a named target and a result. Over the whole deposit, 503 (2.4%) are marked active. 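Raw plate light values, not normalised; calls rest on replicate z-scores that were not deposited; hits include reporter decreases as well as increases.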 Entries without a mark were called inactive. The numbers tell different reagents against one gene apart. Names joined by + are all predicted targets of the reagent. The record does not give: the amount of reagent, the time to read-out.

gene	dsRNA no.	firefly Hh reporter signal, replicate 1	firefly Hh reporter signal, replicate 2	firefly Hh reporter signal, replicate 3	Renilla reference signal, replicate 1	Renilla reference signal, replicate 2
CG12170	1	1.48e5	8.61e5	1.14e5	5763	50964
Cpr62Bc (Cuticular protein 62Bc)	1	1.21e5	71056		3208	5250
CG14744	1	87042	48091		2021	3512
CG31068	1	48740	2.02e5		12476	4384
CG5989	1	83737	69648		4124	3080
CG42780	1	3.49e5	1.45e5		20237	3085
CG4613	1	85771			3142	2587
Ptx1	1	1.17e5	1.36e5		4429	3452
CG11151	1	95001	2.34e5		3653	12458
srw (shrew)	1	74813	32647		2016	1332
CG9743	1	70972	98611		2256	2387
ninaA (neither inactivation nor afterpotential A)	1	1.23e5	81849		5466	3888
CG4000	1	7.94e5	5.22e5	1.65e5	45453	3121
Cpsf5 (Cleavage and polyadenylation specific factor 5)	1	80340	46371		3925	1997
CG3473	1	2.32e5	71920		5307	6459
Gk1 (Glycerol kinase 1)	1	81929	43257		3376	1792
Gk1 (Glycerol kinase 1)	2	79380	40914		2247	2744
Pfas (Phosphoribosylformylglycinamidine synthase)	1	1.13e5	76108		4437	2790
BEAF-32 + CG42254 (retired record)	1	1.85e5	2.91e5		4736	11249
ATPsynbeta (ATP synthase, beta subunit)	1	56060	1.13e5		2320	4891
Membrin	1	43394	93958		5124	5920
Lamtor5 (Late endosomal/lysosomal adaptor, MAPK and MTOR activator 5)	1	78048	2.60e5		2112	10891
CG34030	1	1.24e5	2.33e5		3437	9082
Noc3 (Nucleolar complex protein 3)	1	62064	39353		3141	1993
alpha-Est10 (alpha-Esterase-10)	1	47233	95297		1121	2727
RpL10Aa (Ribosomal protein L10Aa)	1	36925	45633		1153	1669
kat80 (katanin 80)	1	1.09e5	3.41e5		4020	11312
kat80 (katanin 80)	2	86074	2.30e5		3400	8615
Rpp25 (Ribonuclease P/MRP subunit p25)	1	1.35e5	83121		3329	4327
iav (inactive)	1	67728	2.85e5		3081	10937
CG15084	1	1.68e5	7.54e5	1.20e5	6781	43398
CG17726	1	7.43e5	1.19e5		4956	4956
LPCAT (Lysophosphatidylcholine acyltransferase)	1	1.13e5	2.55e5		1728	9589
LPCAT (Lysophosphatidylcholine acyltransferase)	2	73773	2.02e5		2535	8650
tous (testes of unusual size)	1	1.08e5	91255		4160	3894
Tep5Psi (Thioester-containing protein 5 pseudogene)	1	88336	59766		2208	5617
Tep5Psi (Thioester-containing protein 5 pseudogene)	2	87204	69173		2113	5396
Ugt35A1 (UDP-glycosyltransferase family 35 member A1)	1	98704	68805		3924	2652

Limited to “firefly Hh reporter signal, replicate 1”, for 7 of the entries above:
Membrin = 43394
Lamtor5 (Late endosomal/lysosomal adaptor, MAPK and MTOR activator 5) = 78048
CG34030 = 1.24e5
Noc3 (Nucleolar complex protein 3) = 62064
alpha-Est10 (alpha-Esterase-10) = 47233
RpL10Aa (Ribosomal protein L10Aa) = 36925
kat80 (katanin 80) #1 = 1.09e5

The results go on.
gene	dsRNA no.	firefly Hh reporter signal, replicate 1	firefly Hh reporter signal, replicate 2	firefly Hh reporter signal, replicate 3	Renilla reference signal, replicate 1	Renilla reference signal, replicate 2
CG13427	1	1.03e5	43053		2992	507
CG7406	1	62860	1.97e5		1639	9244
CG32354	1	68468	52544		3346	2298
CG32354	2	84695	5.96e5	88640	7356	2650
CG17562	1	63802	1.42e5		2192	4231
lncRNA:CR43435 (long non-coding RNA:CR43435)	1	1.89e5			3830	
Dh31-R (Diuretic hormone 31 Receptor)	1	75056	42072		2160	3462
Dh31-R (Diuretic hormone 31 Receptor)	2	81098	56644		2172	4338
Dyrk3 (Dual-specificity tyrosine phosphorylation-regulated kinase 3)	1	3.72e5 (active)	1.55e5		32172	5728
CG14684	1	88355	1.18e5		2700	3424
Keap1	1	1.10e5	77937		4938	3349
beat-VI (beaten path VI)	1	1.02e5	1.45e5		3413	4792
beat-VI (beaten path VI)	2	74932	96077		2608	3174
CG17234	1	1.04e5	78986		2667	1750
mRpL16 (mitochondrial ribosomal protein L16)	1	1.75e5	1.53e5		3442	4944
Liprin-alpha	1	87572	85611		3416	3328
CG9416	1	72353	88336		2249	5851
kibra	1	83296	90400		3074	2691
kibra	2	43323	21778		1453	631
Rep (Rab escort protein)	1	97402	66874		4409	3000
Ak1 (Adenylate kinase 1)	1	60653	33943	62961	3379	4186
MstProx	1	1.62e5			3389	
MstProx	2	70737	1.07e5		1738	3282
Cpr49Ab (Cuticular protein 49Ab)	1	1.44e5	2.06e5		3914	9203
elav (embryonic lethal abnormal vision)	1	1.48e5	1.07e5		2881	3381
GILT1 (Gamma-interferon-inducible lysosomal thiol reductase 1)	1	1.86e5	75155		6553	2438
Kdm4B (Lysine demethylase 4B)	1	99788	72588		3956	1328
CG3434	1	67597	35604		2949	1307
Cyp6a18 (Cytochrome P450 6a18)	1	1.25e5	1.03e5		4183	2054
CG11030	1	71267	44392		2721	6096
Cog4 (Component of oligomeric golgi complex 4)	1	1.32e5	54698		4649	2073
sun (stunted)	1	41096	1.38e5		1338	6087
CG9776	1	1.69e5	1.23e5		7112	4768
CG13869 + CG11099	1	99683	60208		3029	4652
CG31407	1	1.56e5			3371	
